Experimental findings from PMC7819943, “Rice protein-binding microarrays: a tool to detect cis-acting elements near promoter regions in rice” are described below.

Sequences of proteins named here, by UniProt entry; tags and fusion partners are left off.
UniProt Q0JBA9, entry or part of it: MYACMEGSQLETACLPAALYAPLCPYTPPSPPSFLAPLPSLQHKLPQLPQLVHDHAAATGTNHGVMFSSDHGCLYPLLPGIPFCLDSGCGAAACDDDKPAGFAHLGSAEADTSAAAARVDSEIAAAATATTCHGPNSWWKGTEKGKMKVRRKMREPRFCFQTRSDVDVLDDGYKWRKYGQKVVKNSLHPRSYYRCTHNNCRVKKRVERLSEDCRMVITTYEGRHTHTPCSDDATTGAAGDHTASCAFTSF

The list shows a part of the results.

This test addresses OsWRKY34 (Oryza sativa, UniProt Q0JBA9 1-250). Nature of the test: protein-binding microarray (RPBM); PBS, 2% BSA, 51.3 ng/ul salmon testes DNA, 50 uM zinc acetate, 200 nM TF, 25 C, 1 h; high values mean tight binding. Particulars: protein: recombinant; tags: N-terminal polyhistidine and DsRed monomer fusion (pET32a); label: CyDye5-dUTP incorporated in the synthesized complementary strand; 3' TTTTT single-stranded linker to array surface; dsDNA, one strand shown. The essentials: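 The binding signal is fluorescence intensity per feature, in arbitrary units, read on an Axon 4000B scanner. Polyhistidine- and DsRed-tagged transcription factors (N-terminal fusions) from E. coli BL21-CodonPlus were purified on Ni–NTA and applied at 200 nM for 1 h at 25 °C to a double-stranded, BSA-blocked custom Agilent array in buffer with 50 µM zinc acetate.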
With “ACCTCATAGTTGTGCAAGTTATCGTGTTTTTTTGTCTGTTCGGAGTCACCTAGTGCAG”, the binding signal was 14800 fluorescence intensity (a.u.).

Regarding “CTATTTTGCCATTTTGCATTTTCTACATACCAATTTATTTCGGAGTCACCTAGTGCAG”, the binding signal was 8350 fluorescence intensity (a.u.).

With “GTTTCGTTCGATATGGCAGCTGTTCACTCTTGGTCCTCGGCGGAGTCACCTAGTGCAG”, the binding signal is 8380 fluorescence intensity (a.u.).

For the sequence “AGATCCACGCGTGTTGCGGACTTGCGGTTGCTTTTGTTCGCGGAGTCACCTAGTGCAG”, the binding signal was 8620 fluorescence intensity (a.u.).

For the sequence “CCTTTTCAATGTTCTTGTCATCACTGCTCGTGTCACCCGTCGGAGTCACCTAGTGCAG”, the binding signal is 11400 fluorescence intensity (a.u.).

As to “ATTTTCAAAATATTTGACACTGTTGACTTTTTAGTACATACGGAGTCACCTAGTGCAG”, the binding signal was 9840 fluorescence intensity (a.u.).

As for “CGTCTCACCGCCACCGATTCTCGTCGCCGCCGACGCCTTCCGGAGTCACCTAGTGCAG”, the binding signal was 8790 fluorescence intensity (a.u.).

In the case of “TTCTAACTTTTCGTCACATCGAACTTTTCTACGCGCACAACGGAGTCACCTAGTGCAG”, the binding signal is 8230 fluorescence intensity (a.u.).

Take “ATGCTTCAATTCCATATTTCTTGGCCTCCTCTTCTCCATGCGGAGTCACCTAGTGCAG”: the binding signal was 8380 fluorescence intensity (a.u.).

In the case of “TTTCTCTTTCTTTTTCTTTTTTGGGCCTCCTAAAGTTGACCGGAGTCACCTAGTGCAG”, the binding signal was 8020 fluorescence intensity (a.u.).

Turning to “GGGTGGAGCTGAACTGATGGGCCGAACTATGTATGGTTGGCGGAGTCACCTAGTGCAG”, the binding signal is 9030 fluorescence intensity (a.u.).

Take “ATTCCGTGTTCAATTCCTAACACGCTTATAATTATTTCTTCGGAGTCACCTAGTGCAG”: the binding signal was 8100 fluorescence intensity (a.u.).

As for “TCGCTGACATGTGGGCCCGCGTCTCCGCTCCATCGCGAACCGGAGTCACCTAGTGCAG”, the binding signal was 9400 fluorescence intensity (a.u.).

Turning to “AACTGTATGGTCTGTCAGTCTGCCTTGATATATAATTCTACGGAGTCACCTAGTGCAG”, the binding signal is 9120 fluorescence intensity (a.u.).

As for “GCCGCTACCCTCCTCGTCGGTGTCGGGCTATTTATACACTCGGAGTCACCTAGTGCAG”, the binding signal is 8150 fluorescence intensity (a.u.).

Take “ATGGGTGTTGTCGGGTATGTGATGCAATTTGTTAGATAATCGGAGTCACCTAGTGCAG”: the binding signal was 11100 fluorescence intensity (a.u.).

Take “ATTATAGTAGATGTTGTTGTAACCTGCAAGACTCTTCTCTCGGAGTCACCTAGTGCAG”: the binding signal is 9970 fluorescence intensity (a.u.).

For “TGTACGTACTGGTTTTGACTTTTGTCAACTATTGAAATCTCGGAGTCACCTAGTGCAG”, the binding signal is 8510 fluorescence intensity (a.u.).

Consider “TCTCTCGCCGCCGTCTCGCACCTCGCGTCGCCGCCGCCGCCGGAGTCACCTAGTGCAG”, for which the binding signal is 10500 fluorescence intensity (a.u.).

As to “CACACCCAGCAACACTTCGCCTTCCATGCTTAAGCAAAACCGGAGTCACCTAGTGCAG”, the binding signal was 8070 fluorescence intensity (a.u.).

For the sequence “AAGATTGCCGCTGGGGTTTTTATTTGTTTTATTCGTGGATCGGAGTCACCTAGTGCAG”, the binding signal was 8390 fluorescence intensity (a.u.).

As to “ATTTGGATTGTTTTTGTCTCTCGTTGTCAACTAGGTATTACGGAGTCACCTAGTGCAG”, the binding signal is 14300 fluorescence intensity (a.u.).

“GCCCATGTGTTGTTGCGTCGTCGCCGTGCTTGTTCTTGGTCGGAGTCACCTAGTGCAG”: the binding signal was 10900 fluorescence intensity (a.u.).

Turning to “GTACAGTTTGCCAATTTCATTACTTGTGTTTATCTGAATTCGGAGTCACCTAGTGCAG”, the binding signal is 11700 fluorescence intensity (a.u.).

As for “TTCGTCCGTCTGTCATCTGTGTGGCCCGGAGCCCATCCCGCGGAGTCACCTAGTGCAG”, the binding signal was 8210 fluorescence intensity (a.u.).

Take “CAGTCTGTTGACTTTCTTTACATGCCATGTGCTCTCTAATCGGAGTCACCTAGTGCAG”: the binding signal is 12300 fluorescence intensity (a.u.).

For “CGCTACAAATATGTATACACTGCCTTACTCTAATTAGAAGCGGAGTCACCTAGTGCAG”, the binding signal is 9610 fluorescence intensity (a.u.).

Turning to “GTCAACGGCTACTTCTCCTTATCCCCACCTCCTCCTCCTCCGGAGTCACCTAGTGCAG”, the binding signal is 8140 fluorescence intensity (a.u.).

For “GGTTGGTGCTGTATTGTTTGAGGGGAGGGGATTCCATTTTCGGAGTCACCTAGTGCAG”, the binding signal was 47400 fluorescence intensity (a.u.).

For “TTCGTGTTCCGAGAAAAATTTGTTTCCGTATTCGTGTCCGCGGAGTCACCTAGTGCAG”, the binding signal is 8090 fluorescence intensity (a.u.).

As to “CATGGCCACCATTGAGACACACTACCACTGCTACTCTCTCCGGAGTCACCTAGTGCAG”, the binding signal is 10200 fluorescence intensity (a.u.).

“TACTTCTCTGCGAGCAGCGTTTCCTGCCGTCAGAATTCGGCGGAGTCACCTAGTGCAG”: the binding signal was 8040 fluorescence intensity (a.u.).

On to “TGATTCTCGCTGTTTCAACTGCGGTTCTTATAGTCATGCTCGGAGTCACCTAGTGCAG”, for which the binding signal is 8560 fluorescence intensity (a.u.).

With “GTAACTTTCTGCAGACTGCAACATTCTGAATCTAACTTTTCGGAGTCACCTAGTGCAG”, the binding signal was 9120 fluorescence intensity (a.u.).

In the case of “TCTCGGTTATTTTCCCAGCCTCCACCTCCAGTGGCTGTTGCGGAGTCACCTAGTGCAG”, the binding signal is 8420 fluorescence intensity (a.u.).

In the case of “GCCATCACCGTCGCCGCGACGCCCGTCACCGGCCGCCGGCCGGAGTCACCTAGTGCAG”, the binding signal is 9980 fluorescence intensity (a.u.).

Take “TCCTTCCATCTCTCTGCTCACTTCACTTCACCTTCCAATGCGGAGTCACCTAGTGCAG”: the binding signal was 9020 fluorescence intensity (a.u.).

As to “AACACCCAACCATGTACCATTCCATGCACAACCACAACCACGGAGTCACCTAGTGCAG”, the binding signal is 13000 fluorescence intensity (a.u.).

With “GACGGGAGACCCAATCATAAATTGGAGGCGCCGGCCATCTCGGAGTCACCTAGTGCAG”, the binding signal is 11800 fluorescence intensity (a.u.).

Consider “TTCACACTACTCCTTCAGATTAATCCATCTCGTTGATATTCGGAGTCACCTAGTGCAG”, for which the binding signal was 9490 fluorescence intensity (a.u.).

For the sequence “CTTCTTCTCTCCGCTCCGCGTGTCCACTCCTCTCCCAATCCGGAGTCACCTAGTGCAG”, the binding signal was 12200 fluorescence intensity (a.u.).

“TATACTTTATCTACTCCTAGCACATTTATTCCTTACTTTCCGGAGTCACCTAGTGCAG”: the binding signal is 9520 fluorescence intensity (a.u.).
